Laboratory results from PubChem BioAssay AID1259415 (National Center for Advancing Translational Sciences (NCATS), 2018).
Screen size: about 410,000 compounds; about 18,000 (4.4%) were called active. The inconclusive results got no clear call from the source; some entries with a clear call stand among them for comparison. No stated cut-off is given here; in the data, active means activity change below about -60%; inconclusive means no clear call, values can overlap the other calls; inactive means above about -39%.

experiment: qHTS Assay for inhibitors of the human cytomegalovirus (HCMV); conditions: HFF cells, HCMV-luciferase reporter, 72 h; at 57.5 µM; hits give low values
Outline: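 Two-dose cell screen: HFF monolayers treated with compounds and infected with luciferase-expressing HCMV at 1 PFU/cell, 72 h at 37C, then lysed for luciferase measurement.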
On the % scale 0 is the no-effect control and ±100 the full control effect.

Row | SMILES | activity change, negative = inhibition
1 | N=c1c2c(n(Cc3ccccc3)c3c1CCC3)CCC2 | active: -96.5%
2 | CCN(CC)S(=O)(=O)c1ccc(C)c(NC(=S)N2CCN(C/C=C/c3ccccc3)CC2)c1 | inconclusive: -58.4%
3 | Cc1cccc2c1c1ccc3c(c1n2C)C(=O)C=CC3=O | inactive: 3.31%
4 | CCc1ccc(NC(=O)c2noc(C(C)C)c2[N+](=O)[O-])cc1 | inconclusive: -44.2%
5 | O=C(COC(=O)Cc1cn2ccsc2n1)NCc1ccc2c(c1)OCO2 | inactive: 3.34%
6 | CCSc1nn(CC(=O)Nc2cccc(CC)c2)c(N)c1S(=O)(=O)c1ccccc1 | inconclusive: -47.3%
7 | CCOC(=O)C1=C(N)Oc2cc(C)n(CCc3ccc(OC)c(OC)c3)c(=O)c2C1c1cccnc1 (stereo not given) | inactive: 1.41%
8 | O=C(Oc1cccc2cccnc12)c1cccc(-n2cnnn2)c1 | inconclusive: -49%
9 | Cc1ccc(NC(=S)N(CCN(C)C)C(C)c2ccco2)cc1C (stereo not given) | inconclusive: -56.4%
10 | COc1ccccc1NC(=O)Cn1c(O)c(N=NC(=O)c2ccccc2O)c2ccccc21 | active: -107%
11 | CC(Sc1nc(N)cc(=O)[nH]1)C(=O)Nc1sc2c(c1C#N)CCCC2 (stereo not given) | active: -66.2%
12 | CCc1cc(C(=O)OC)c(NC(=O)CC2SC(N)=NC2=O)s1 (stereo not given) | inconclusive: -43.2%
13 | Cc1ccc(-c2nc(CCNC(=O)c3ccc(C)c(C)c3)cs2)cc1 | inconclusive: -48.3%
14 | CSc1nc2sc3c(c2c(=S)[nH]1)CC(C)(C)OC3 | inactive: 29.6%
15 | CN(CCc1ccccn1)C(=O)CCC1CCCN(C(=O)c2n[nH]c3c2CCCC3)C1 (stereo not given) | inconclusive: -57.1%
16 | CCN(CC)S(=O)(=O)c1ccc(Cl)c(NC(=S)NC(=O)C2CCCC2)c1 | inconclusive: -40.3%
17 | Cc1c(C)c2cc(Cl)c(OCC(=O)Nc3ccccn3)cc2oc1=O | inactive: 3.9%
18 | CCOC(=O)c1c(C)[nH]c(C=C2C(=O)CCCC2=O)c1O | inactive: 7.41%
19 | CCOC(=O)c1c(NC(=O)C2CCCN(S(=O)(=O)c3ccc(C)cc3)C2)sc2c1CCCC2 (stereo not given) | inactive: -19.3%
20 | C[C@@H]1CC=C[C@H]2[C@H]1C(=O)N(Cc1ccccc1)[C@H]2c1ccc2ccccc2c1Br | inconclusive: -53.9%
21 | CC(CCCN(C)C)C(Cc1ccccc1)c1ccccc1 (stereo not given) | active: -77.9%
22 | CN(CCc1ccccn1)C(=O)c1cc(COc2ccc(F)cc2F)on1 | inconclusive: -47.4%
23 | CN1c2ccccc2C2(C)CCCC3=Cc4cc([N+](=O)[O-])cc([N+](=O)[O-])c4OC312 (stereo not given) | active: -60.2%
24 | COc1ccc(N2C(=O)CC(Sc3nc(C)c4c(n3)CCCC4)C2=O)cc1 (stereo not given) | inactive: -6.87%
25 | CCC(C)Nc1nc(N)c([N+](=O)[O-])c(Nc2cc(OC)ccc2OC)n1 (stereo not given) | inconclusive: -56.1%
26 | CCOc1cc(NS(=O)(=O)CC)c(OCC)cc1NC(=O)c1ccco1 | active: -77.4%
27 | CCN1CCc2c(sc(N)c2C#N)C1 | inconclusive: -58.5%
28 | CNC(=O)c1cc2cc(OC)ccc2n1CCN(C)C | inconclusive: -47.3%

A few values from above:
C[C@@H]1CC=C[C@H]2[C@H]1C(=O)N(Cc1ccccc1)[C@H]2c1ccc2ccccc2c1Br – activity change, negative = inhibition: inconclusive: -53.9%
CCOC(=O)C1=C(N)Oc2cc(C)n(CCc3ccc(OC)c(OC)c3)c(=O)c2C1c1cccnc1 (stereo not given) – activity change, negative = inhibition: inactive: 1.41%
CCN(CC)S(=O)(=O)c1ccc(Cl)c(NC(=S)NC(=O)C2CCCC2)c1 – activity change, negative = inhibition: inconclusive: -40.3%
CC(CCCN(C)C)C(Cc1ccccc1)c1ccccc1 (stereo not given) – activity change, negative = inhibition: active: -77.9%

Additional results.

Row | SMILES | activity change, negative = inhibition
29 | Cc1ccc(Cn2c(SCc3ccc(C(=O)NC4CCCCC4)cc3)nc3ccncc32)cc1 | inconclusive: -59.1%
30 | COc1ccc(-c2cc(C(=O)NCCCN3CCOCC3)no2)cc1 | inconclusive: -47.8%
31 | O=C1CC(c2ccco2)Cc2nc(Nc3nc(-c4ccccc4)c4ccccc4n3)ncc21 (stereo not given) | inconclusive: -41.5%
32 | CCc1ccc(CN2C(=O)c3ccccc3C2C(=O)NCC2CCCO2)cc1 (stereo not given) | inconclusive: -40.4%
33 | CCOc1ccc(-c2n[nH]c(=S)c3ccccc23)cc1 | inactive: -38.9%
34 | CCOc1ccc(S(=O)(=O)N(CC)CC)cc1NS(=O)(=O)c1ccc(F)c(F)c1F | inactive: -20.2%
35 | CCOc1ccc(N(CC)C(=O)COc2cc(=O)n(C)c3ccccc23)cc1 | active: -103%
36 | CCSc1ncc(Cl)c(C(=O)Nc2ccccc2Cl)n1 | inconclusive: -44.7%
37 | COc1ccc(C(O)c2nc(-c3cccc(C(C)C)c3)cs2)cc1 (stereo not given) | inconclusive: -51.3%
38 | CCOc1ccc(S(=O)(=O)Nc2cc(S(=O)(=O)N(CC)CC)ccc2N2CCCC2)cc1 | inconclusive: -46.3%
39 | COc1ccc(NC(=O)N(C2CCCCC2)C2CCN(C(C)C)CC2)c(OC)c1 | inactive: -9.03%
40 | CC1CCCN(CCCNC(=O)c2ccc(CS(=O)(=O)c3c(Cl)cccc3Cl)o2)C1 (stereo not given) | inconclusive: -42.5%
41 | CCn1c(CNC(=O)c2ccco2)nnc1SCC(=O)c1ccccc1 | active: -61.8%
42 | O=C(c1ccccc1)C1CC1c1ccccc1 (stereo not given) | inactive: -25.4%
43 | O=C(Nc1nccs1)C1CC(=O)N(Cc2ccco2)C1 (stereo not given) | inactive: -26%
44 | O=C(c1ccc(O)cc1)c1ccc(C(=O)c2ccc(O)cc2)cc1 | inconclusive: -45%
45 | Cc1ccc(CN2CCC(CNC(=O)c3cnn(-c4ccccc4Cl)c3C3CCN(C(=O)OC(C)(C)C)CC3)CC2)cc1 | active: -65.8%
46 | CCC(C(=O)NCC1CCCO1)N(Cc1ccc(F)cc1)C(=O)CNS(=O)(=O)c1ccccc1 (stereo not given) | active: -70.6%
47 | CCOc1ccc(CN2CCC(n3nccc3NC(=O)CCCc3ccccc3)CC2)cc1 | inconclusive: -59.7%
48 | CCOc1ccc(CCNC(=O)C2CC(=O)N(C3CCCC3)C2)cc1OCC (stereo not given) | inconclusive: -47.4%
49 | CN(C(=O)c1c(Cl)cnn1C)C12CC3CC(CC(C3)C1)C2 | inactive: -18.8%
50 | CC1(C(=O)OCC(=O)Nc2cccc(S(=O)(=O)NC3=NCCCCC3)c2)CC1(Cl)Cl (stereo not given) | inconclusive: -42%
51 | CCn1c(CNC(=O)COc2ccc(C(C)C)cc2)nnc1SCC(=O)NC1CCCCC1C (stereo not given) | inconclusive: -44.5%
52 | COc1ccc(S(=O)(=O)NCC(c2cccs2)S(=O)(=O)c2ccccc2)cc1OC (stereo not given) | inconclusive: -54.9%
53 | Cc1ccc2nc(/C(C#N)=C\c3ccc(OC(=O)c4cccs4)cc3)[nH]c2c1 | active: -67.5%
54 | CCN(CC)C(=O)C1CCCN(C(=O)c2ccc3nc(-c4cccc(OC)c4)oc3c2)C1 (stereo not given) | inactive: 31.1%
55 | COc1ccc(-c2noc(CN(C(=O)c3ccc(OC(C)=O)cc3)C(C)C)n2)cc1OC | inactive: 44%
